Consider 1 sequence from article PMC5258706.

The target in this data set is T1, SRP1 (Stress Associated RNA-binding protein 1 + SRZ5 in primer names), GST fusion (Arabidopsis thaliana) (UniProt Q8S8K1).
T1 sequence (looked up, limits assumed): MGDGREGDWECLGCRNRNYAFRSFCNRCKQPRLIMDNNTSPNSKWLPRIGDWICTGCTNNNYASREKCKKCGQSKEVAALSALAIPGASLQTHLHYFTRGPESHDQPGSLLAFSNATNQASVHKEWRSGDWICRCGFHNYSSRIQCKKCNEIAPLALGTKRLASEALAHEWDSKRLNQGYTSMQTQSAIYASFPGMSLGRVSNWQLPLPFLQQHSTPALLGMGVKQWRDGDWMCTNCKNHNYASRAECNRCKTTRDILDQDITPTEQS
The experiment in a line: EMSA. To be noted: shift reduced by unlabeled ABI2 3'UTR RNA; 20 mM HEPES pH 7.5, 50 mM NaCl, 5 mM 2-mercaptoethanol, 1 mM DTT, 5 uM ZnCl2, 4 mM MgCl2; 23 C, 30 min; 8% native TRIS borate gel at 4 C; recombinant protein; protein details: GST (N-terminal, pGEX-2T); label: biotin-16-UTP (internal), unlabeled as competitor. In general terms: A gel shift assay detects complexes by their altered migration in electrophoresis.

For at least one entry, the source does not settle the construct or the ends of the probe. Protein sequences can lack the tags named with them.

With “GGAAAAGAAGGUUUGGAAGAAAAGUGAAAAAAAAAGUUUUGAUGGUGGGUAAAAAUUCUCUUUAGUGAAAAAAGAAAGAUAAAACAACAGGUAAUAAUUACAUUGUAAUAUUAAUUUCCUGCUUAAAUUUGUUAUUUACUUUCUUAGUCUUCCCACCAUUAUCUUUUUAUAUUUAUUUUACUAACAUGAUAUAUAUAAUGUACAUGGGAAUAGUGUAACUUCCAAACAAAAAGCCCCCUUGUAUUUUUUUUUAUCUUGGGGUUAGUUGUAAUAACACUACAUUCGUCUACGUAAAUAUUUAGUGUUAUUAUUUGAUGUUU [ABI2 3'UTR RNA]”, the binding result was “binds”.
